This is one part of the list. The main result of the screen is listed elsewhere. These columns were measured beside it and carry no call. The list favours compounds with an active or inconclusive main result. Words in brackets tell the shape of the fitted curve; partial curves, single points and poor fits give uncertain potencies.
Experiment: qHTS Assay to Find Inhibitors of Chronic Active B-Cell Receptor Signaling
Conditions: ABC-DLBCL IkBa-CBG/CBR reporter, luminescence ratio (green luciferase fused to IkBa over red control in TMD8 lymphoma cells), 4 h
Procedure, shortened: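 Concentration-response series (up to 46 uM) were applied to TMD8 dual-reporter cells for 4 h at 37C with doxycycline. Green/red ratio, after filter-overlap correction, defined %Activity; red signal alone was normalised to basal cells and zero luminescence.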

[1] = measured here: CBR red luminescence, cell number
[2] = measured here: IkBa-CBG green luminescence

SMILES	AC50 [1]	AC50 [2]
Cc1ccc(Sc2ccc(CN3CCCCC3)cc2[N+](=O)[O-])cc1	35.5 µM [rising, single point]	
COc1ccc(NC(=O)COc2ccccc2C#N)c(S(=O)(=O)N2CCCCC2)c1	8.91 µM [falling, partial curve, poor fit]	
C/C(=N\NC(=S)Nc1ccc(C)cc1)c1cccc(N)c1		12.6 µM [falling, partial curve, poor fit]
CC(=O)Nc1cccc(N=NN2CCOCC2)c1	3.55 µM [falling, single point]	
COc1ccc(C/C(C)=N/NC(=O)c2cc(C)oc2C)cc1	8.2 µM [falling, partial curve]	
O=C(N/N=C/c1ccc(O)cc1)c1cc(C2CC2)[nH]n1	35.5 µM [falling, single point]	
COc1ccc(-c2ccc(-c3noc(-c4ccc(OC)c(OC)c4)n3)c(OC)n2)cc1	15.8 µM [rising, single point]	
Nc1nc(NCc2ccccc2)nc(-c2ccccc2)n1	25.9 µM [falling, single point]	
Cc1ccc(Cn2ccsc2=NC(=O)CCl)cc1	7.94 µM [falling, partial curve]	
O=C(CSc1ncnc2sc3c(c12)CCC3)Nc1ccccc1C(=O)O	1.12 µM [falling, partial curve, poor fit]	
O=C(NC1CCCC1)c1cc(-c2ccccc2Cl)on1	12.6 µM [falling, partial curve]	
COc1cc(/C=N/NC(=O)c2cc(C)oc2C)cc(OC)c1OC	3.98 µM [falling, full curve, poor fit]	15.8 µM [rising, partial curve, poor fit]
O=C(O)c1ccc(Oc2cc(Oc3ccc(C(=O)O)cc3)cc([N+](=O)[O-])c2)cc1	1.41 µM [falling, full curve]	
C=CCNC(=O)COc1ccc(Br)cc1Cl	7.08 µM [rising, partial curve]	
CCCc1ccc(-c2cc(C(=O)NCCc3ccc(S(N)(=O)=O)cc3)c3ccccc3n2)cc1	35.5 µM [falling, single point]	
O=C1Nc2ccccc2C1(O)c1ccccc1 (stereo not drawn)	1.12 µM [rising, full curve, poor fit]	
Cc1ccc([N+](=O)[O-])cc1NC(=O)CCSc1ccc(Cl)cc1	29.1 µM [rising, single point]	
O=C(NCC1CCCO1)/C(=C/c1ccc(Cl)cc1)NC(=O)c1ccccc1 (stereo not drawn)	7.31 µM [rising, partial curve]	
Cc1nc2ccc(NC(=O)COc3ccccc3[N+](=O)[O-])cc2s1	0.501 µM [rising, full curve]	
O=C(NCc1ccco1)C(C(=O)c1ccccc1)n1ccccc1=O (stereo not drawn)	0.631 µM [rising, partial curve, poor fit]	
CC(=O)Nc1ccc2nc(-c3ccco3)[nH]c2c1	22.4 µM [falling, single point]	
O=C(c1cccc2ccccc12)N1CCN=C1SCc1ccc([N+](=O)[O-])cc1	0.164 µM [rising, full curve, poor fit]	

SMILES	AC50 [1]	AC50 [2]
O=C(Nc1ccc(F)cc1)Nc1nnc(SCC(=O)N2CCCCC2)s1	35.5 µM [rising, partial curve, poor fit]	
N#CCCn1nc(-c2ccccc2)cc1Nc1ccccc1NC(=O)c1cccs1	12.6 µM [falling, single point]	
C=CCOc1ccc(C(=O)CC)cc1OC	25.9 µM [rising, single point]	
Cn1c(=O)[nH]c2nnc(-c3ccc(Cl)c(Cl)c3)nc2c1=O	0.631 µM [falling, full curve, poor fit]	
O=C(NCC(=O)N1CCN(c2ccccc2)CC1)c1ccccc1	8.91 µM [falling, partial curve, poor fit]	
O=C(CSc1nnc(-c2cccs2)n1-c1cccc(Cl)c1)c1cccc2c1OCCO2	20.6 µM [rising, partial curve, poor fit]	
O=c1oc2ccccc2c(Nc2cc3ccccc3cc2O)c1[N+](=O)[O-]	12.6 µM [falling, partial curve]	
Cc1nc2ncnn2c(C)c1Cc1c(Cl)cccc1Cl	3.26 µM [rising, partial curve, poor fit]	
CN(C)CCN(C(=O)c1ccc(N2C(=O)CCC2=O)cc1)c1nc2cc3c(cc2s1)OCO3	17.8 µM [falling, single point]	
CC(C)N(C(=O)CSc1ncnc2sc(-c3ccccc3)cc12)C(C)C	10.3 µM [rising, single point]	
Cc1ccc2nc(-c3ccc(NC(=O)CN(c4ccccc4C)S(C)(=O)=O)cc3)sc2c1	0.00411 µM [rising, full curve, poor fit]	
Cc1cnc([N+](=O)[O-])n1CCOC(=O)NC(=O)c1ccccc1Cl	35.5 µM [falling, single point]	
O=C(COc1ccc(Cl)cc1)NCCc1ccccn1	10 µM [rising, partial curve]	
NS(=O)(=O)c1cccc(NC(=O)COC(=O)CNC(=O)c2ccc(-c3ccccc3)cc2)c1	11.6 µM [falling, single point]	
CCOc1ccc(/C=N/NC(=O)c2ccccc2NC(=O)c2ccc(OC)cc2)cc1	6.51 µM [falling, partial curve]	
CCOC(=O)N1CCN(S(=O)(=O)c2ccc(C(=O)Nc3nc4ccc(F)cc4s3)cc2)CC1	1.26 µM [falling, full curve, poor fit]	
CCOC(=O)c1c2ccc(OCC(=O)NN)cc2n2ccccc12	35.5 µM [falling, single point]	35.5 µM [rising, partial curve, poor fit]
Cc1ccc(C(=O)N2CCCC(CCC(=O)N3CCN(c4ccccn4)CC3)C2)s1 (stereo not drawn)	35.5 µM [falling, single point]	
CCOc1ccccc1NC(=O)CSc1nc2ccccc2nc1N1CCCC1	5.62 µM [falling, single point]	
CCOC(=O)C(C)On1c(-c2ccccc2)nc2ccc([N+](=O)[O-])cc21 (stereo not drawn)	20.6 µM [falling, partial curve]	
COC(=O)c1[nH]c2cccc(Cl)c2c1NC(=O)CN1CCCCC1C (stereo not drawn)	2.82 µM [rising, partial curve]	
Cc1cc(C)c(NC(=S)NC(NC(=O)c2ccccc2)C(Cl)(Cl)Cl)c(C)c1 (stereo not drawn)	18.4 µM [falling, partial curve]	32.6 µM [rising, partial curve, poor fit]

Given in CSV form: 17 of the compounds above.
SMILES,AC50 [1],AC50 [2]
Cn1c(=O)[nH]c2nnc(-c3ccc(Cl)c(Cl)c3)nc2c1=O,"0.631 µM [falling, full curve, poor fit]",
O=C(NCC(=O)N1CCN(c2ccccc2)CC1)c1ccccc1,"8.91 µM [falling, partial curve, poor fit]",
O=C(CSc1nnc(-c2cccs2)n1-c1cccc(Cl)c1)c1cccc2c1OCCO2,"20.6 µM [rising, partial curve, poor fit]",
O=c1oc2ccccc2c(Nc2cc3ccccc3cc2O)c1[N+](=O)[O-],"12.6 µM [falling, partial curve]",
Cc1nc2ncnn2c(C)c1Cc1c(Cl)cccc1Cl,"3.26 µM [rising, partial curve, poor fit]",
CN(C)CCN(C(=O)c1ccc(N2C(=O)CCC2=O)cc1)c1nc2cc3c(cc2s1)OCO3,"17.8 µM [falling, single point]",
CC(C)N(C(=O)CSc1ncnc2sc(-c3ccccc3)cc12)C(C)C,"10.3 µM [rising, single point]",
Cc1ccc2nc(-c3ccc(NC(=O)CN(c4ccccc4C)S(C)(=O)=O)cc3)sc2c1,"0.00411 µM [rising, full curve, poor fit]",
Cc1cnc([N+](=O)[O-])n1CCOC(=O)NC(=O)c1ccccc1Cl,"35.5 µM [falling, single point]",
O=C(COc1ccc(Cl)cc1)NCCc1ccccn1,"10 µM [rising, partial curve]",
NS(=O)(=O)c1cccc(NC(=O)COC(=O)CNC(=O)c2ccc(-c3ccccc3)cc2)c1,"11.6 µM [falling, single point]",
CCOc1ccc(/C=N/NC(=O)c2ccccc2NC(=O)c2ccc(OC)cc2)cc1,"6.51 µM [falling, partial curve]",
CCOC(=O)N1CCN(S(=O)(=O)c2ccc(C(=O)Nc3nc4ccc(F)cc4s3)cc2)CC1,"1.26 µM [falling, full curve, poor fit]",
CCOC(=O)c1c2ccc(OCC(=O)NN)cc2n2ccccc12,"35.5 µM [falling, single point]","35.5 µM [rising, partial curve, poor fit]"
Cc1ccc(C(=O)N2CCCC(CCC(=O)N3CCN(c4ccccn4)CC3)C2)s1 (stereo not drawn),"35.5 µM [falling, single point]",
CCOc1ccccc1NC(=O)CSc1nc2ccccc2nc1N1CCCC1,"5.62 µM [falling, single point]",
CCOC(=O)C(C)On1c(-c2ccccc2)nc2ccc([N+](=O)[O-])cc21 (stereo not drawn),"20.6 µM [falling, partial curve]",

Carrying on:

SMILES	AC50 [1]	AC50 [2]
CCOC(=O)Cn1ccc(NC(=O)c2ccc3c(c2)OCO3)n1	10 µM [falling, partial curve]	
Cc1ccc(C)c(NC(=O)C(=O)NCCc2c[nH]c3ccccc23)c1	7.94 µM [falling, partial curve]	
O=C(OCC(O)CO)c1ccccc1Nc1ccnc2cc(Cl)ccc12 (stereo not drawn)	29.1 µM [falling, single point]	9.2 µM [falling, partial curve]
Cn1cc(Cl)c(C(=O)N/N=C/c2ccc3c4c(cccc24)CC3)n1	7.08 µM [falling, partial curve]	
Cc1cc(C)cc(N(CC(=O)Nc2ccc(C)cc2Cl)S(=O)(=O)c2c(C)[nH]c(=O)[nH]c2=O)c1	35.5 µM [falling, single point]	
Cc1nnc(SCC(=O)Nc2cccc([N+](=O)[O-])c2)n1CC1CCCO1 (stereo not drawn)	5.01 µM [falling, single point]	
Cc1cccc(Cc2nnc(CCC(=O)N(C)Cc3ccncc3C)o2)c1	11.2 µM [falling, partial curve, poor fit]	
Nc1nc(COc2ccc(F)cc2)nc(N2CCCCC2)n1	3.55 µM [rising, single point]	
COCCn1c(SCC(=O)N2CCCc3ccccc32)nc2c(c1=O)SC(C)C2 (stereo not drawn)	10.3 µM [falling, partial curve, poor fit]	
C/C(=C\c1ccccc1)C(=O)Nc1ccc(Cl)cn1	10 µM [falling, partial curve]	
CCOc1ccc2c(C)nc(NC3=NC(C)(C)C=C(C)N3)nc2c1	2.06 µM [rising, partial curve, poor fit]	
CCc1nnc(NC(=O)c2ccc(S(=O)(=O)N3CCCCC3)cc2)s1	3.55 µM [rising, partial curve]	
CN(Cc1nc(-c2ccccn2)no1)S(=O)(=O)c1ccc(Br)cc1	1.46 µM [rising, partial curve, poor fit]	
CCN(CC)c1ccc(/C=N/Nc2nc3ccccc3[nH]2)c(O)c1	23.1 µM [falling, single point]	
COC(=O)C(OC(=O)c1ccc(OC)cc1)C(=O)OC	32.6 µM [rising, single point]	
CC(=O)c1cnc2cc(-c3ccccc3)nn2c1C	2.91 µM [rising, partial curve, poor fit]	
c1ccc(-n2nnnc2-c2cnc(-c3ccncc3)nc2-c2cccs2)cc1	29.1 µM [falling, partial curve, poor fit]	
CSCc1c(C(=O)Nc2ccc3c(c2)OCO3)oc2ccccc12	7.08 µM [falling, partial curve]	
O=C(CCSc1ccccc1)N1CCOCC1	4.11 µM [rising, full curve]	
CCCCNC(=O)c1ccc2c(c1)ncn2C1CCCC1	32.6 µM [falling, single point]	

From PubChem BioAssay AID493014 (National Center for Advancing Translational Sciences (NCATS), 2011)
